PubChem BioAssay AID1508600 (Functional Genomics Laboratory (NCATS/FGL), 2020)
The campaign covered roughly 53,000 sequences. About 3,700 (7%) were called active.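 The calls were made as follows: active = gene knockdowns whose robust z-score for IL-1 alpha signal is at least 2 or at most -2, so actives lie on both sides; inactive = the rest.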 Some of the results follow.

Experiment: Components of the Cytosolic LPS Sensing Pathway: Gene Identification via Genome-wide siRNA Screen;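 also: robust z of the log signal after scaling to non-targeting control siRNA wells of the plate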
Conditions: RAW264.7 macrophages, IL-1a HTRF, actives lie on both sides, screened at 100 nM (by protocol), cells primed 5 h with Pam3CSK4 first
How it was run: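 Mouse macrophage line RAW264.7 is transfected with siRNA (100 nM final), grown 48h, primed with TLR ligand Pam3CSK4 5 h and given intracellular LipidA 24 h. IL-1a in supernatant is read by HTRF and viability by luminescence.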

Sequence	z-score
GCGAGUUUAAAAGCACACUTT against Trmt44	inactive: 0.376
GGCAUCAAAAAGCAGACAATT against Erich2	inactive: -1.98
GACCAACCCUCACUAAGCUTT against Tcstv3	inactive: -0.364
CGUACAUGUCACCUGCUAATT against Acot13	inactive: 1.69
CCCUUGGUUAUGGAGAAAGTT against Mcoln2	inactive: -0.0392
GGCAGCUGCUGACUUGAUGTT against Gng2	inactive: 0.133
GGGUAGGAUUGAAAAGUUUTT against Trh	inactive: -1.24
CCCUUGCUUGUCGGAAUCUTT against Chchd7	inactive: 1.11
GCAACCUGCAGGCAGUAACTT against Nolc1	inactive: 0.207
GGCCCAUAAUUAAAUGUUUTT against Stac2	inactive: 0.438
GGAAGAUGACCAAGAAGCUTT against Ddx42	inactive: -0.364
GGACCUCAUCUACAGAAUGTT against Tssk1	inactive: 0.878
CCUACGUGAUAUCCUUUUATT against Vrk1	inactive: 0.0128
GGUGGACGAUUGAAAGUGATT against Lbx2	inactive: 0.825
GGCAGGAGAGGCAUCUUUUTT against Arhgap20	inactive: 0.0912
GGAAUCCUUGGACCUGAGGTT against Tnni3	active: -2.11
CGCUUAGCAAUAUCAUCGATT against Get3	inactive: -0.38
CCUAACCAUUGCUUAUAUATT against Stat1	inactive: 1.35
GGAGAAUGACAAGAACUGCTT against Acer1	inactive: -0.352
GGAUAUUAUGUCUUUGCUATT against Ints2	inactive: 0.499
CCUUUUCCAUGCCUACUCCTT against Bag3	inactive: 0.339
GCUUUCGGAUGAACUUCGGTT against Gripap1	inactive: 0.577
CCCAACAAUCCAACAAUGATT against Gm5444	inactive: 0.286

Looked up one by one from above:
Sequence	z-score
GCUUUCGGAUGAACUUCGGTT against Gripap1	inactive: 0.577
GCGAGUUUAAAAGCACACUTT against Trmt44	inactive: 0.376
CCUUUUCCAUGCCUACUCCTT against Bag3	inactive: 0.339

Following part

Sequence	z-score
GCGAGAUCUGUCCUUACAGTT against Ildr1	inactive: 0.929
GGCUGGAACCCUAAUUUCUTT against Tpo	inactive: 1.32
CCAGACAGAAGGGUUAGCUTT against Mrps36	active: -2.03
CCUAAGGAAGAUAAACCGGTT against Sh2d7	active: -2.43
GGUAAAAAGCGCAGACUUATT against Bms1	inactive: 0.957
CCUAGUGAUUAAAGGGAUGTT against Prss43	inactive: 1.19
GGAUGCUGAGCUUUCUGACTT against Fchsd1	inactive: 0.476
CCUGAGUAACAUUGCCGUGTT against Mgat1	inactive: -0.193
GGGUGACAGGGCAUGAGAATT against Macroh2a3	inactive: 0.611
GGCUUUCUCAUAUAACUCCTT against Mest	inactive: -1.4
UCAACUCUUGACUUCGCUGTT against Rhbdd2	inactive: -0.619
CCAUCGUCCAAAGUACAUGTT against Rbp4	inactive: -1.39
GGAUCUCAGCUUCACUCCUTT against Emc8	inactive: -1.47
GGAACCUUAGAUGUUACUUTT against Scara3	inactive: -0.438
GGGAGAACUUAGCACGAAUTT against Polr2h	inactive: 0.392
GGAUCCACAGAGAAACCCUTT against Gfi1b	inactive: -0.599
CCUCUCACACACCAUAACATT against Polm	inactive: -1.67
GGAAAACAUAUUUCAGCAGTT against Zfp775	inactive: 1.05
CGGAUUAGUAUAAAUGUAGTT against Prss16	inactive: -0.109
GGAAUCUGAUACCCAAGGATT against Csl	inactive: -0.555
CCAAAGAUGCUGGUAGAUUTT against Olfr1140	inactive: -1.16
GGAGGAGGAGGACUUUGAUTT against Gon4l	inactive: -1.49
CUCAGUUCUUCUUCUUUUCTT against Olfr12	inactive: 0.852

Sequence	z-score
GGAAAAUUGGAACAAUCCATT against Sval2	inactive: -0.796
GCAAGCCCUGGAAGAAUUATT against Nat8	active: 2.26
CCAAGAAUUACCACUUAUCTT against Phf11a	inactive: 0.191
GGAGUGUGAUCAAGUUCAUTT against Eya4	active: 2.16
GGAGAUAAAAGUUUCAUCUTT against Kdm4b	inactive: 0.287
GGCUUCACAAGGACCUUUGTT against BC024139	inactive: 1.88
GCUAUAUGACAACCUCAGCTT against Slamf8	inactive: 0.801
GGAAGCCUGAAACUCAGCATT against Srpk1	inactive: -1.34
GCAAUUAAUAGAAUUAGCCTT against Slc8a1	inactive: -0.0398
GGGCUCUUUAUCCUUUCCUTT against Cer1	inactive: 0.227
GGAGGAAAGAAUCGAUUUATT against Slc5a4a	inactive: 1.18
GCUGAUCAAGGACUAUCGGTT against Ywhaq	inactive: -0.567
GGCCAUGGUCAUGGACAUGTT against Itpr3	inactive: -0.466
GGCUCAAGUAUGAGAAUGATT against Krt15	inactive: -0.859
GGUGUGUUUUAUGUGUCCCTT against Ctif	active: 2.62
GGAGAAGCAGGCCUUACAGTT against Clec3b	inactive: 0.333
GGAGAAUGGUUCAUAUCUGTT against Trmt44	inactive: -0.849
CCAGCUCUGGUUUAUUGAATT against Neurog2	inactive: -1.67
GGUGAGCGUGUAGAGAUGCTT against Fbxo45	inactive: 0.787
GGAUAUCACAUAGCAUCGGTT against 1700025G04Rik	inactive: -0.742
GGACUAUGGAACCUUCACCTT against Sigirr	inactive: -1.6
GGAGUAGCAGAGCUUCUGGTT against S100a8	inactive: 0.642
CGCGCAUUGUGUUGCACUATT against Olfr1344	inactive: -0.00661
